Test results from patent publication US20260007717A1 (priority 2022, published 2026).
Non-standard residues stand in square brackets, D forms with d. Residues, ends and D or L forms follow the SMILES beside them. Aib = CC(C)(N)C(=O)O

How the values were obtained:
plasmid pUC18 = assay: DNA binding gel retardation
[1] = peptide made by a vendor (Fmoc solid-phase peptide synthesis); conditions: whole synthesis, HPLC and Mass Spectrometry
A. baumannii YQ4 = assay: Live/Dead SYTO-9 / propidium iodide staining, CLSM; assay type: cell-based, Acinetobacter baumannii; conditions: COG1410 1×MIC, polymyxin B 5×MIC, 30 min

Compound: CC(=O)N[C@@H](C)C(=O)N[C@@H](CO)C(=O)NC(C)(C)C(=O)N[C@@H](CC(C)C)C(=O)N[C@@H](CCCNC(=N)N)C(=O)N[C@@H](CCCCN)C(=O)N[C@@H](CC(C)C)C(=O)NC(C)(C)C(=O)N[C@@H](CCCCN)C(=O)N[C@@H](CCCNC(=N)N)C(=O)N[C@@H](CC(C)C)C(=O)N[C@@H](CC(C)C)C(N)=O [SEQ ID NO: 1, acetyl-AS-aib-LRKL-aib-KRLL-amide] (Ac-AS[Aib]LRKL[Aib]KRLL-NH2)
- electrophoretic mobility of plasmid pUC18 (plasmid pUC18; 1×MIC): only a fraction of the DNA migrated into the gel
- electrophoretic mobility of plasmid pUC18 (plasmid pUC18; higher concentrations): completely retarded

Compound: Ac-AS[Aib]LRKL[Aib]KRLL-NH2
- purity (crude or final not stated) [1]: 95%

Compound: polymyxin B [reference compound]
- SYTO-9 / PI staining of treated cells (A. baumannii YQ4): red fluorescence
